According to patent publication US20020156245A1:
No constants are given. Whether binding was seen depends on the method and setting. Some binding calls cover weakened binding; strength is not graded here.

Sequences of proteins named here, by UniProt entry; tags and fusion partners are left off. A change or cut given only in a name is not applied to a line headed by its entry.
UniProt Q9Y6C5: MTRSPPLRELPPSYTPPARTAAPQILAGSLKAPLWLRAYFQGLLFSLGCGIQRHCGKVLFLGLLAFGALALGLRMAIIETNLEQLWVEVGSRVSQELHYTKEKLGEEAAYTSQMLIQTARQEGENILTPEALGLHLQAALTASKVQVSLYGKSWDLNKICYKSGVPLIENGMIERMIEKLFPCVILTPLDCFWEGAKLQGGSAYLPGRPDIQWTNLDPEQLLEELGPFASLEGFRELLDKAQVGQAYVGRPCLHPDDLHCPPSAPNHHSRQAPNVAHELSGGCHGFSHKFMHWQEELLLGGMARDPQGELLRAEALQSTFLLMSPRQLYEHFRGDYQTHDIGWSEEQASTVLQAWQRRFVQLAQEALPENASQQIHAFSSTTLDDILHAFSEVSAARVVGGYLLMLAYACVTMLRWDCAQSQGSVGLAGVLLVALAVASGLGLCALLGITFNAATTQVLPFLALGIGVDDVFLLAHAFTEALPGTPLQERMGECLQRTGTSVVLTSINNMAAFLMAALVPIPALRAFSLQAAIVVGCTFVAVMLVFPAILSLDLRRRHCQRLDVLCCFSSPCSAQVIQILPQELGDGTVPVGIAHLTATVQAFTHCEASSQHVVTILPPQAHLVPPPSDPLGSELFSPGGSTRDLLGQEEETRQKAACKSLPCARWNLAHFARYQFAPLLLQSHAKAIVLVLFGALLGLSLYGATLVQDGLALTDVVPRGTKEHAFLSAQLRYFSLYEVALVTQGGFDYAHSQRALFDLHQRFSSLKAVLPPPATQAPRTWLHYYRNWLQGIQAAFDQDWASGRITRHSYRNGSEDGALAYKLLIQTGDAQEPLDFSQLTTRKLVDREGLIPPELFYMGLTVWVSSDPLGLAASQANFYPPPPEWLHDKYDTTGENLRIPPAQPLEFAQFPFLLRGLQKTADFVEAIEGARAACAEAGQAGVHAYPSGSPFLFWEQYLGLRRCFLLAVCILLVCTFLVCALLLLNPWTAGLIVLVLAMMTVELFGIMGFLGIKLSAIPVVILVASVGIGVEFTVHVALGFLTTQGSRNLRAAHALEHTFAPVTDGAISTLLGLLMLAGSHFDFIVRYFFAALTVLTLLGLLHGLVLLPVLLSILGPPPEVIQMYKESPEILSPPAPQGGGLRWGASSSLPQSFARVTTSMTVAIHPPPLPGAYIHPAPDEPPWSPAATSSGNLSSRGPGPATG

Biological target: human Ptch-2 (SEQ ID NO:2) (human) (UniProt Q9Y6C5)
Assay: competition with 100 pM 125I-Shh on transfected 293 cells

Q: For “Dhh (SEQ ID NO:13) (from UniProt Q61488 23-198) (ligand)”, which binding is on record?
A: The binding was “binds”.
